Measured values as given in patent publication US4552864A (Reanal Finomvegyszergyar, priority 1982, dated 1985).

Assay: general procedure: solution-phase peptide synthesis; azide coupling (NaNO2/HCl from hydrazide); pentafluorophenyl active ester (OPFP)

Row | Substance | step yield (coupling step) [%] | other results
1 | [pGlu]HWSY-OMe | 100 | 
2 | Glp-His-Trp-Ser-Tyr-D-Cpa-Leu-Arg-Pro-Gly-NH2 | 50 | 
3 | Glp-His-Trp-Ser-Tyr-N2 H3 |  | step yield (late stage modification step, calculated for the two steps): 56.9%
4 | Glp-His-Trp-Ser-Tyr-D-Thx-Leu-Arg-Pro-Gly-NH2 | 25 | 
5 | H-D-Thx-Leu-Arg-Pro-Gly-NH2.HCl |  | step yield (late stage modification step): 90%
6 | BOC-D-Cpa-Leu-Arg(NO2)-Pro-Gly-NH2 | 95 | 
7 | H-D-Cpa-Leu-Arg-Pro-Gly-NH2.HF |  | step yield (late stage modification step): 85%

[ ]: non-standard residue; d: D form. pGlu = O=C1CC[C@@H](C(=O)O)N1
